In PubChem BioAssay AID624291 (National Center for Advancing Translational Sciences (NCATS), 2012):
In all, about 350,000 compounds went through this assay and about 220 (0.063%) were called active. Inconclusive results, whose numbers are uncertain, are shown with a selection of clear calls. The call rests on the fitted dose curve; in most records, active means well fitted activation curve with a large enough effect; inconclusive means small, poorly fitted or top-dose-only effect; inactive means no such curve, though single readings can be large or run the other way. Potencies beside an inconclusive call are fits to weak or partial responses and may not hold up.

Experiment: qHTS for Activators of Integrin-Mediated Alleviation for Muscular Dystrophy; further: nearly all actives have a fitted effect of over 60% in size;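 on activation: 100% = response of the positive control SU9516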
Conditions: alpha7betagal myoblasts, beta-gal FDG fluorescence, 48 h; activation: at 38.3 µM (top of the series)
In short: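 alpha7betagal+/- myoblasts (passage 13, 250/well) treated 48 h at 37C with compounds at 1:260 dilution of DMSO stock. Lysed, then beta-galactosidase activity read as FDG fluorescence (ex 480/em 540) after 30 min, with pre-read for autofluorescence.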
Potency means the concentration at half of the fitted maximal effect.

activation, inactive:
COc1ccccc1/C=C1\SC(=O)N(CCC(=O)NCCCn2ccnc2)C1=O 0.159%, CCOc1ccc(CCNC(=O)COC(=O)c2cccs2)cc1OCC 0.707%, O=C(c1ccco1)c1n[nH]nc1-c1ccccc1 6.31%, O=C(Nc1cccc(Cl)c1)Nc1nccs1 -10.5%, CC1=C/C(=C(\c2cc(C)c(O)c(Br)c2)c2ccccc2S(=O)(=O)O)C=C(Br)C1=O 29.8%, C[C@@H]1CN([C@H](C)CO)S(=O)(=O)c2ccc(Br)cc2O[C@@H]1CN(C)Cc1ccc(C(=O)O)cc1 -2.66%, COCCOC(=O)c1[nH]c2c(c1C)C(=O)CC(c1ccccc1)C2 (stereo not given) -33.9%, O=C1N/C(=C/c2ccc(N3CCCC3)cc2)C(=O)N1c1ccccc1 -21.2%, Cc1ccccc1NS(=O)(=O)c1cc2c(cc1C)N(C)CCO2 -7.23%, Cc1cc(=O)[nH]c(N=N/C(=N/Nc2ccccc2C)c2ccccc2)n1 -2.27%, COc1cc(C(=O)NNC(=O)c2ccccc2OCc2c(C)noc2C)cc(OC)c1OC -41%, Cc1ccccc1/C=N/n1c(-c2ccccn2)n[nH]c1=S 10.4%, O=C(CC(C(=O)O)P(=O)(c1ccccc1)c1ccccc1)c1ccccc1 (stereo not given) 1.33%, COC(=O)/C=C1/SC(=Nc2ccc(Cl)c(Cl)c2)NC1=O -17.4%

activation, inconclusive:
C/C(=N/NC(=O)c1ccc(Br)o1)c1ccc(C)o1 1.88% [activator]

Potency, active:
O=C(Nc1ccc(Oc2cccnc2)cc1)c1ccccc1Cl 10 µM

Potency, inconclusive:
CCOc1ccc(NC(=S)Nc2ccc(F)cc2)cc1 0.891 µM [activator, full curve, poor fit], COc1ccc(NC(=O)C2=Cc3ccccc3OC2)cc1 1 µM [activator, full curve, poor fit], Cc1cc(C(=O)N/N=C/c2ccccc2)c(C)o1 28.2 µM [activator, single point], Cc1ccc(C)c(N2CC(C(=O)O)CC2=O)c1 (stereo not given) 6.31 µM [activator, partial curve, poor fit], O=C(C=Cc1ccccc1)N1CCCCC1 2.24 µM [activator, full curve], CN(Cc1ccccc1)S(=O)(=O)c1ccc2c(c1)n(C)c(=O)c(=O)n2C 15.8 µM [activator, single point], Cc1cccc(NC(=S)NC(=O)c2ccc(-c3ccccc3)cc2)n1 0.316 µM [activator, full curve, poor fit], O=C(NCC1CCCO1)c1ccccc1NS(=O)(=O)c1cc([N+](=O)[O-])ccc1Cl (stereo not given) 5.01 µM [activator, single point], O=C(O)C1=C[C@@H](C2CC2)C[C@@H](OCCCCO)O1 3.16 µM [activator, single point], Cc1cc(=O)n2nc(N3CCC(C(=O)Nc4cccc(Cl)c4C)CC3)sc2n1 1 µM [activator, full curve, poor fit], Cc1cc(Nc2ccccc2N2CCOCC2)n2ncnc2n1 7.08 µM [activator, partial curve, poor fit], CCC(NC(=O)CCc1c(C)c2cc3c4c(oc3cc2oc1=O)CCCC4)C(=O)O (stereo not given) 28.2 µM [activator, single point], CCOc1ccc(/C(O)=C2/C(=O)C(=O)N(CC3CCCO3)C2c2cccs2)cc1 (stereo not given) 5.01 µM [activator, single point], N/C(=N\OC(=O)c1ccc(Cl)cc1)c1[nH]ncc1Br 20 µM [activator, single point], CCOc1ccccc1N1CN(C2CCCCC2)CNC1=S 0.501 µM [activator, partial curve, poor fit], CCNC(=O)NC1c2ccccc2CSc2ccccc21 (stereo not given) 22.4 µM [activator, partial curve, poor fit], O=C(Cc1c(F)cccc1Cl)Nc1cc(S(=O)(=O)N2CCOCC2)ccc1N1CCCC1 12.6 µM [activator, partial curve, poor fit], Cc1cc(C)cc(NC(=O)C2CCN(c3cnccn3)CC2)c1 12.6 µM [activator, single point], O=C(COC(=O)/C=C/c1ccc([N+](=O)[O-])cc1)NC1CCCCC1 5.01 µM [activator, single point], CC(Sc1nc(N)cc(N)n1)C(=O)Nc1ccc(N2CCOCC2)cc1 (stereo not given) 5.01 µM [activator, single point], CCOC(=O)c1ccc(NC(=O)CC2C(=O)N(c3ccc(F)cc3)C(=O)N2CCC(C)C)cc1 (stereo not given) 5.01 µM [activator, single point], CN(Cc1ccccc1)c1nc2c(c(=O)[nH]c(=O)n2C)n1CCCc1ccccc1 22.4 µM [activator, single point], Cc1cc(C(=O)NCc2ccc(C(=O)O)o2)c(C)o1 3.16 µM [activator, single point], Cc1ccccc1NC(=O)CC(=O)c1ccccc1 28.2 µM [activator, single point], O=C(CSc1ncccn1)N/N=C/c1ccc2c(c1)OCO2 5.01 µM [activator, single point], CSc1ccc(CNC(=O)Cn2nc(C)c3c(C)n(-c4ccc(C)cc4)nc3c2=O)cc1 28.2 µM [activator, single point], Cc1ccc(-c2c(C(=O)N(C)Cc3ccccc3)oc(=O)c3ccccc23)cc1 5.01 µM [activator, full curve, poor fit], Cc1cc(/C=C2\C(=N)N3N=C(C(C)C)SC3=NC2=O)c(C)n1-c1ccccc1 10 µM [activator, partial curve, poor fit], C/C(Cc1ccccc1)=N\NC(=O)c1cc(C(C)(C)C)[nH]n1 7.94 µM [activator, partial curve, poor fit]
